Test results as given in the supplement of paper PMC4604168 (melanoma cell lines).
This is one part of the list. Repeats are few or missing, and single values can be far off.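 Imaging used 1,536-well plates; nuclei positive for cleaved PARP by antibody were divided by total DNA-stained nuclei to yield the apoptosis fraction. Doses for screening kept most cells viable, and cell lines differ markedly in resting and induced cleaved-PARP levels.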

Tests used:
Assay in all cases: cleaved PARP positive nuclei fraction relative to DMSO control; melanoma cells; higher = more apoptosis
Details in all cases: library dose: low library concentration; 72 h
501Mel = test system: 501Mel
A101D = test system: A101D
A2058 = test system: A2058
A375 = test system: A375
C32 = test system: C32
CBRC008 = test system: CBRC008 (line from a melanoma biopsy)
CBRC013 = test system: CBRC013 (line from a melanoma biopsy)
CBRC014 = test system: CBRC014 (line from a melanoma biopsy)
CBRC016 = test system: CBRC016 (line from a melanoma biopsy)
CBRC017 = test system: CBRC017 (line from a melanoma biopsy)
COLO792 = test system: COLO792
COLO800 = test system: COLO800
COLO829 = test system: COLO829
G361 = test system: G361
IPC-298 = test system: IPC-298
IST-MEL1 = test system: IST-MEL1
LB2518-MEL = test system: LB2518-MEL
LOXIMVI = test system: LOXIMVI
MEL-HO = test system: MEL-HO

| Compound | cleaved PARP positive nuclei fraction (501Mel) | cleaved PARP positive nuclei fraction (A101D) | cleaved PARP positive nuclei fraction (A2058) | cleaved PARP positive nuclei fraction (A375) | cleaved PARP positive nuclei fraction (C32) | cleaved PARP positive nuclei fraction (CBRC008) | cleaved PARP positive nuclei fraction (CBRC013) | cleaved PARP positive nuclei fraction (CBRC014) | cleaved PARP positive nuclei fraction (CBRC016) | cleaved PARP positive nuclei fraction (CBRC017) | cleaved PARP positive nuclei fraction (COLO792) | cleaved PARP positive nuclei fraction (COLO800) | cleaved PARP positive nuclei fraction (COLO829) | cleaved PARP positive nuclei fraction (G361) | cleaved PARP positive nuclei fraction (IPC-298) | cleaved PARP positive nuclei fraction (IST-MEL1) | cleaved PARP positive nuclei fraction (LB2518-MEL) | cleaved PARP positive nuclei fraction (LOXIMVI) | cleaved PARP positive nuclei fraction (MEL-HO) |
| --- | --- | --- | --- | --- | --- | --- | --- | --- | --- | --- | --- | --- | --- | --- | --- | --- | --- | --- | --- |
| CN(c1ncccc1CNc1nc(Nc2ccc3c(c2)CC(=O)N3)ncc1C(F)(F)F)S(C)(=O)=O + C=CCn1c(=O)c2cnc(Nc3ccc(N4CCN(C)CC4)cc3)nc2n1-c1cccc(C(C)(C)O)n1 [MK1775] (first compound 0.08 µM, partner dose 0.02 µM) | 226% | 111% | 50.7% | 99.5% | 599% | 44% | 92.3% | 81.6% | 21.4% | 96.2% | 89% | 143% | 36% | 90.3% | 88.3% | 98.5% | 108% | 126% | 138% |
| C[C@]1(O)C[C@@H](c2nc(-c3ccc4ccc(-c5ccccc5)nc4c3)c3c(N)nccn32)C1 + COc1cc(Nc2ncc(F)c(Nc3ccc4c(n3)NC(=O)C(C)(C)O4)n2)cc(OC)c1OC [Tamatinib] (first compound 0.4 µM, partner dose 0.4 µM) | 596% | 199% | 164% | 675% | 152% | 192% | 210% | 106% | 34.5% | 114% | 349% | 359% | 39.5% | 142% | 452% | 126% | 486% | 66.7% | 156% |
| C[C@]1(O)C[C@@H](c2nc(-c3ccc4ccc(-c5ccccc5)nc4c3)c3c(N)nccn32)C1 + C=CCn1c(=O)c2cnc(Nc3ccc(N4CCN(C)CC4)cc3)nc2n1-c1cccc(C(C)(C)O)n1 [MK1775] (first compound 0.4 µM, partner dose 0.02 µM) | 565% | 228% | 151% | 429% | 94.4% | 55.5% | 119% | 113% | 59.1% | 76.4% | 162% | 44.7% | 117% | 52.8% | 113% | 186% | 58% | 157% | 132% |
| C[C@@H](N)c1ccc(C(=O)Nc2ccnc3[nH]ccc23)cc1 + CC(C)(C)c1cnc(CSc2cnc(NC(=O)C3CCNCC3)s2)o1 [SNS-032] (first compound 0.4 µM, partner dose 0.01 µM) | 82.8% | 250% | 149% | 1420% | 72.7% | 104% | 270% | 102% | 106% | 117% | 259% | 46.9% | 162% | 95.3% | 178% | 152% | 106% | 517% | 450% |
| CCCCCCCCc1ccc(CCC(N)(CO)CO)cc1 [fingolimod] + CC1(C)NC(=O)N(c2ccc([N+](=O)[O-])c(C(F)(F)F)c2)C1=O [nilutamide] (first compound 2 µM, partner dose 1 µM) | 136% | 140% | 56.2% | 242% | 114% | 82.4% | 118% | 88.1% | 61.6% | 90.2% | 122% | 198% | 67.2% | 124% | 85.6% | 60.6% | 81.5% | 35.7% | 76.5% |
| Cn1sc(=O)n(Cc2ccccc2)c1=O + CC1(C)NC(=O)N(c2ccc([N+](=O)[O-])c(C(F)(F)F)c2)C1=O [nilutamide] (first compound 0.4 µM, partner dose 1 µM) | 105% | 243% | 128% | 58.7% | 45.4% | 124% | 116% | 116% | 111% | 65.6% | 70.1% | 85.6% | 79.1% | 142% | 90.1% | 91.7% | 288% | 144% | 72.3% |
| C[C@@H](N)c1ccc(C(=O)Nc2ccnc3[nH]ccc23)cc1 + CN(C)S(=O)(=O)c1ccc2c(c1)/C(=C/c1cc3c([nH]1)CCCC3)C(=O)N2 [SU6656] (first compound 0.4 µM, partner dose 0.4 µM) | 84.8% | 114% | 75.1% | 153% | 230% | 204% | 100% | 78.3% | 109% | 93.1% | 126% | 47.2% | 136% | 72.2% | 61.4% | 54.8% | 25.8% | 56% | 165% |
| Cn1cnc2c(F)c(Nc3ccc(Br)cc3Cl)c(C(=O)NOCCO)cc21 [selumetinib] + O=C(O)c1ccc(-c2c[nH]c3ncc(-c4ccccc4)cc23)cc1C1CCCC1 [GSK650394] (first compound 0.015 µM, partner dose 0.16 µM) | 110% | 30.6% | 79.8% | 127% | 26.1% | 163% | 73.8% | 71% | 52.5% | 156% | 132% | 43.6% | 97.1% | 112% | 95.4% | 222% | 467% | 82.2% | 72.3% |
